These are yes or no findings as the source states them, for the method shown. In cells and extracts the contact can be indirect. Binding calls can cover weak binding; strength is not graded here. Tags and fused reporters may be left off the sequences shown.
How the values were obtained:
[1] = target: T1, GST–Ino2 TAD2 (aa 101–135) (S. cerevisiae) (UniProt P26798); assay: pull-down; GST fusions (from E. coli) immobilized on GSH sepharose, incubated with total protein extract from E. coli containing the HA fusion; washed twice with buffer A1, eluted with free GSH; anti-HA blot; only the target purified
T1 sequence: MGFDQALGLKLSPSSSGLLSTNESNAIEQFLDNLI

By UniProt entry, the sequences of proteins in these tests, tags left out. Where a name states a change or a piece, a line headed by the entry shows the natural chain unless it says otherwise.
UniProt P32773: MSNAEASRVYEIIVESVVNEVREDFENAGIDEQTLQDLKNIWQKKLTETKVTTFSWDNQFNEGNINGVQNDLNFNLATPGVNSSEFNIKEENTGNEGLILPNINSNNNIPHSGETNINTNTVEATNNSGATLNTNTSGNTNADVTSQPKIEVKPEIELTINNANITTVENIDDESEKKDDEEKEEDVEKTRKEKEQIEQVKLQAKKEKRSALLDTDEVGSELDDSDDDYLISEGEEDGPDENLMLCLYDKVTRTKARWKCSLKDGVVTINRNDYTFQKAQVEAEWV

[2] = target: T2, GST–Ino2 TAD1 (aa 1–35) (S. cerevisiae) (UniProt P26798); assay: as above
T2 sequence: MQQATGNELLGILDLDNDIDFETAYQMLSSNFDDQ

- binding [1]: binds
- binding [2]: binds
Substance: Toa1 ABD2 (aa 210–286) L263A K264A (from UniProt P32773) (domain or fragment)

From publication PMC10716077
